We go through six molecules from article PMC5133968.

Sequences of proteins named here, by UniProt entry; tags and fusion partners are left off. A change or cut given only in a name is not applied to a line headed by its entry.
UniProt Q16513: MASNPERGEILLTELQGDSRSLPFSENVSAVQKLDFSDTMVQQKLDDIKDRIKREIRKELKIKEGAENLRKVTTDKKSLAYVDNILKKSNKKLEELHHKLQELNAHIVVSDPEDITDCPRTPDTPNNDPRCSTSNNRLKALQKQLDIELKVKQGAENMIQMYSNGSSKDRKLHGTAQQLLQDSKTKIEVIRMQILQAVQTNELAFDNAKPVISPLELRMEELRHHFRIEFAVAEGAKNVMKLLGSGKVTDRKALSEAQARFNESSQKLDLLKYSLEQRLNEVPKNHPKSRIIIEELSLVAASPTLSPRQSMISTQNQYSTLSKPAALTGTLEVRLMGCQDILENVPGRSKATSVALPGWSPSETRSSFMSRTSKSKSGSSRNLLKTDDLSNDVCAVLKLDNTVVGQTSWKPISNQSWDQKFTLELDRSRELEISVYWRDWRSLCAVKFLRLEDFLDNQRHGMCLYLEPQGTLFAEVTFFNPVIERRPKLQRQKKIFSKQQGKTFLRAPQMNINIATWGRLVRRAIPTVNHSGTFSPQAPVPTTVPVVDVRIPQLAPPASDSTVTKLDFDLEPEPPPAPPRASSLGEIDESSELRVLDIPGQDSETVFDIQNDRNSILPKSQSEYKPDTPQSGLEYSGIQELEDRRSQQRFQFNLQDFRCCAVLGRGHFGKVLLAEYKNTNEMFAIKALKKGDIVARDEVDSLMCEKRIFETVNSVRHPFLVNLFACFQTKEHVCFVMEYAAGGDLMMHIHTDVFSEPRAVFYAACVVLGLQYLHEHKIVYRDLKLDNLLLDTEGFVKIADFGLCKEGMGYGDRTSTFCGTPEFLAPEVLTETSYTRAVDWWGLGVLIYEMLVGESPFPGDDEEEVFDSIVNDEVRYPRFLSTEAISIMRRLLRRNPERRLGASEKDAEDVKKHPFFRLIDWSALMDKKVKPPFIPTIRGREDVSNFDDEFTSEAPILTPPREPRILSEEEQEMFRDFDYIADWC

For experiment [1], the target named is T1, Cdo (cell adhesion molecule-related downregulated by oncogene), full length (rat) (UniProt O35158).
T1 sequence: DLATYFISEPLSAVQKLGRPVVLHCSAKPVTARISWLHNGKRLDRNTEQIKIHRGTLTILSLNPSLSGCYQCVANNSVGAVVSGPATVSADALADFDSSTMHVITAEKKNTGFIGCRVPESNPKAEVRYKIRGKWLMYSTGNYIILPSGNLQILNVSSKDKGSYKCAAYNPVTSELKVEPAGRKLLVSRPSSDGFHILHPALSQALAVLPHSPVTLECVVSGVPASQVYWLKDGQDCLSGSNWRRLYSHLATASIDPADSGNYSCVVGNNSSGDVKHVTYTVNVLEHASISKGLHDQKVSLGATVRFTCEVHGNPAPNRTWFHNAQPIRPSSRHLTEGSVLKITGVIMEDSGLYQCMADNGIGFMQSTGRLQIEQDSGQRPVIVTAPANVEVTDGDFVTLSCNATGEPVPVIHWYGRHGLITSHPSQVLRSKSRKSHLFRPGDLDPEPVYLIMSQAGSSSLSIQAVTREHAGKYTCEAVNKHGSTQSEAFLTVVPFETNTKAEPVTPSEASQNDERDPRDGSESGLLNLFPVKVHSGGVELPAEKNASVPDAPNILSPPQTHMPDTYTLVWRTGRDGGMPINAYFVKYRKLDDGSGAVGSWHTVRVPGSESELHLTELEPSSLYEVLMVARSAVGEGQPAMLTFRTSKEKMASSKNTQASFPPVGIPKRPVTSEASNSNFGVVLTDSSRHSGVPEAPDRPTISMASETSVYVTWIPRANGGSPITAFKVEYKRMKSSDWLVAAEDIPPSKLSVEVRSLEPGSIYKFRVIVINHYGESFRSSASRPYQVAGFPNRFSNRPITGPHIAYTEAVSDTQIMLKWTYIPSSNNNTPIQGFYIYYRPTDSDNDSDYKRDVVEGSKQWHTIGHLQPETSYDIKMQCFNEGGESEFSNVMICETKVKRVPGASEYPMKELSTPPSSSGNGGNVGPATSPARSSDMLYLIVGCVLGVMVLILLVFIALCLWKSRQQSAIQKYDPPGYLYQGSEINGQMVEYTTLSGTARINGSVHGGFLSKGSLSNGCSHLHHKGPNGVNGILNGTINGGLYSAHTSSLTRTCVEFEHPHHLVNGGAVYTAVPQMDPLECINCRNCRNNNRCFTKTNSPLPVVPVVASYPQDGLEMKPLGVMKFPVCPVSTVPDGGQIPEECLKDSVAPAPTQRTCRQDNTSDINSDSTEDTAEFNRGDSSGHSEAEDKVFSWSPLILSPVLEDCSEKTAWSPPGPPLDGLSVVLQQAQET
Kind of experiment: co-IP; 293T cells transiently co-transfected; lysates immunoprecipitated with an antibody to Cdo, blotted for PKN2 or GST (Figures 2a, 2g).

The target of experiment [2] is GST-tagged full-length PKN2 (AA1-984) (human) (UniProt Q16513). Kind of experiment: co-IP; 293T cells transiently co-transfected; lysates immunoprecipitated with PKN2 antibodies, blotted for Cdo (Figure 2e) or HA (Figure 5b).

Results are given in words; binding and its absence hold for the method and conditions named. In cells and extracts the contact can be indirect. Some binding calls cover weakened binding; strength is not graded here. For part of these data: Sequences can lack the tags named with a protein.

Consider “PKN2 (protein kinase C-related kinase 2), expression vector with no tag named (from UniProt Q16513 1-984) (enzyme)”, for which the binding entry in experiment [1] was “binds”.

Consider “GST-PKN2 AA900-984 (from UniProt Q16513 900-984) (domain or fragment)”, for which the binding result in experiment [1] is listed as “binds”.

B1: HA-APPL1 AA265-709 (domain or fragment, UniProt Q9UKG1 265-709)
chain: DPDPTKFPVNRNLTRKAGYLNARNKTGLVSSTWDRQFYFTQGGNLMSQARGDVAGGLAMDIDNCSVMAVDCEDRRYCFQITSFDGKKSSILQAESKKDHEEWICTINNISKQIYLSENPEETAARVNQSALEAVTPSPSFQQRHESLRPAAGQSRPPTARTSSSGSLGSESTNLAALSLDSLVAPDTPIQFDIISPVCEDQPGQAKAFGQGGRRTNPFGESGGSTKSETEDSILHQLFIVRFLGSMEVKSDDHPDVVYETMRQILAARAIHNIFRMTESHLLVTCDCLKLIDPQTQVTRLTFPLPCVVLYATHQENKRLFGFVLRTSSGRSESNLSSVCYIFESNNEGEKICDSVGLAKQIALHAELDRRASEKQKEIERVKEKQQKELNKQKQIEKDLEEQSRLIAASSRPNQASSEGQFVVLSSSQSEESDLGEGGKKRESEA
B1: in experiment [2], the binding entry was “binds”.

B2: HA-APPL1 AA1-499 (domain or fragment, UniProt Q9UKG1 1-499)
chain: MPGIDKLPIEETLEDSPQTRSLLGVFEEDATAISNYMNQLYQAMHRIYDAQNELSAATHLTSKLLKEYEKQRFPLGGDDEVMSSTLQQFSKVIDELSSCHAVLSTQLADAMMFPITQFKERDLKEILTLKEVFQIASNDHDAAINRYSRLSKKRENDKVKYEVTEDVYTSRKKQHQTMMHYFCALNTLQYKKKIALLEPLLGYMQAQISFFKMGSENLNEQLEEFLANIGTSVQNVRREMDSDIETMQQTIEDLEVASDPLYVPDPDPTKFPVNRNLTRKAGYLNARNKTGLVSSTWDRQFYFTQGGNLMSQARGDVAGGLAMDIDNCSVMAVDCEDRRYCFQITSFDGKKSSILQAESKKDHEEWICTINNISKQIYLSENPEETAARVNQSALEAVTPSPSFQQRHESLRPAAGQSRPPTARTSSSGSLGSESTNLAALSLDSLVAPDTPIQFDIISPVCEDQPGQAKAFGQGGRRTNPFGESGGSTKSETEDSILH
As to B2, in experiment [2], the binding result is on record as “binds”.

B3: HA-APPL1/486-709 (domain or fragment, UniProt Q9UKG1 486-709)
chain: GGSTKSETEDSILHQLFIVRFLGSMEVKSDDHPDVVYETMRQILAARAIHNIFRMTESHLLVTCDCLKLIDPQTQVTRLTFPLPCVVLYATHQENKRLFGFVLRTSSGRSESNLSSVCYIFESNNEGEKICDSVGLAKQIALHAELDRRASEKQKEIERVKEKQQKELNKQKQIEKDLEEQSRLIAASSRPNQASSEGQFVVLSSSQSEESDLGEGGKKRESEA
Regarding B3, the binding result in experiment [2] was “binds weakly”.

B4: HA-tagged full-length APPL1 (protein, UniProt Q9UKG1 1-709)
chain: MPGIDKLPIEETLEDSPQTRSLLGVFEEDATAISNYMNQLYQAMHRIYDAQNELSAATHLTSKLLKEYEKQRFPLGGDDEVMSSTLQQFSKVIDELSSCHAVLSTQLADAMMFPITQFKERDLKEILTLKEVFQIASNDHDAAINRYSRLSKKRENDKVKYEVTEDVYTSRKKQHQTMMHYFCALNTLQYKKKIALLEPLLGYMQAQISFFKMGSENLNEQLEEFLANIGTSVQNVRREMDSDIETMQQTIEDLEVASDPLYVPDPDPTKFPVNRNLTRKAGYLNARNKTGLVSSTWDRQFYFTQGGNLMSQARGDVAGGLAMDIDNCSVMAVDCEDRRYCFQITSFDGKKSSILQAESKKDHEEWICTINNISKQIYLSENPEETAARVNQSALEAVTPSPSFQQRHESLRPAAGQSRPPTARTSSSGSLGSESTNLAALSLDSLVAPDTPIQFDIISPVCEDQPGQAKAFGQGGRRTNPFGESGGSTKSETEDSILHQLFIVRFLGSMEVKSDDHPDVVYETMRQILAARAIHNIFRMTESHLLVTCDCLKLIDPQTQVTRLTFPLPCVVLYATHQENKRLFGFVLRTSSGRSESNLSSVCYIFESNNEGEKICDSVGLAKQIALHAELDRRASEKQKEIERVKEKQQKELNKQKQIEKDLEEQSRLIAASSRPNQASSEGQFVVLSSSQSEESDLGEGGKKRESEA
As to B4, the binding entry in experiment [2] was “binds”.
